Measured values from US20020031818A1, “Modification of Mdm2 activity” (priority 2000, published 2002).
These are yes or no findings as the source states them, for the method shown. For some of these results: Binding seen in cells or lysates may run through a third protein. Some results given as binding are weak or reduced against the parent protein; the word gives no strength. For some of these results: Tags and fused reporters may be left off the sequences shown.

Amino acid sequences for entries named in this document (tags omitted). Residues count along the entry.
UniProt P63280, residues 2-158: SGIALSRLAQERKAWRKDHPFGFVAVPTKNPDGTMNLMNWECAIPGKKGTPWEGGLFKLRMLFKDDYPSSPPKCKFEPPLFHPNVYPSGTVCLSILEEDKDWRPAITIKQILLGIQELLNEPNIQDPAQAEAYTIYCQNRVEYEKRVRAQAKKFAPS

Experiments:
[1] = molecular target: Ubc9 of mouse fibroblast cells (EJ cell lysates; NIH 3T3 cells) (mouse) (UniProt P63280); experiment: HA immunoprecipitation from transfected cells, immunoblot for Ubc9 (FIG. 9B)
[2] = molecular target: Ubc9 of mouse fibroblast cells (EJ cell lysates; NIH 3T3 cells) (mouse) (UniProt P63280); experiment: HA immunoprecipitation from transfected NIH 3T3 cells, co-immunoprecipitation of Ubc9 (FIG. 9B legend)
[3] = molecular target: Ubc9 of mouse fibroblast cells (EJ cell lysates; NIH 3T3 cells) (mouse) (UniProt P63280); experiment: peptide on AminoLink beads incubated with EJ mouse fibroblast lysate (FIG. 9A legend)
[4] = molecular target: Ubc9 of mouse fibroblast cells (EJ cell lysates; NIH 3T3 cells) (mouse) (UniProt P63280); experiment: peptide on AminoLink beads incubated with cell lysate, Western blot for Ubc9 (FIG. 9A)

binding [1] | binding [2] | binding [3] | binding [4] | Binder
binds | binds | – | – | SVGAQKDTYTMKEVLFYLGQ (peptide, not shown: small tags and cut ends) [mu9bs peptide expressed in cells with penetratin sequence and HA-tag (pcDNA3)]
– | – | binds | binds | SVGAQKDTYTMKEVLFYLGQ [mu9bs peptide (Mdm2 Ubc9 binding site), synthetic peptide corresponding to aa 40-59 of Mdm2]
